According to PMC7893936:
Results are given in words; binding and its absence hold for the method and conditions named. For some assays here: Binding seen in cells or lysates may run through a third protein. Some results given as binding are weak or reduced against the parent protein; the word gives no strength.

Protein sequences, listed by entry. Tags and fused reporters are not part of them.
UniProt P78362: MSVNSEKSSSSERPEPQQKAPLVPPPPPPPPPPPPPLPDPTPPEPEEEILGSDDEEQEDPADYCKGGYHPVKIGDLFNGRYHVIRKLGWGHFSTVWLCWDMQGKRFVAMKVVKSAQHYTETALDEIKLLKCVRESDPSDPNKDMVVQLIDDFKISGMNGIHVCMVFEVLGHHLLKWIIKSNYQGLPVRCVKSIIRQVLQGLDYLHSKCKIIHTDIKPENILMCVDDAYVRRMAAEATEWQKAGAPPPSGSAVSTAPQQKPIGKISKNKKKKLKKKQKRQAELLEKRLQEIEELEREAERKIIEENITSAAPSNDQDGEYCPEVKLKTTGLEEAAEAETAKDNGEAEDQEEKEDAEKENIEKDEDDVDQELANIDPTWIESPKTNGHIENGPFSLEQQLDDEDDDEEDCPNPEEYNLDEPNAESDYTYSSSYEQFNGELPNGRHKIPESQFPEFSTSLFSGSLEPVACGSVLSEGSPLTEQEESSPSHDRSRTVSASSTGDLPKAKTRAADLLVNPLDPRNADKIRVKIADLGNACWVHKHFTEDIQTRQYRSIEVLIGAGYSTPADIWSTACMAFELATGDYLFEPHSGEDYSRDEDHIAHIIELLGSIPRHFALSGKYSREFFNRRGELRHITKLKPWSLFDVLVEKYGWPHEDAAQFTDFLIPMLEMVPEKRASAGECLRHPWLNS
UniProt Q07955: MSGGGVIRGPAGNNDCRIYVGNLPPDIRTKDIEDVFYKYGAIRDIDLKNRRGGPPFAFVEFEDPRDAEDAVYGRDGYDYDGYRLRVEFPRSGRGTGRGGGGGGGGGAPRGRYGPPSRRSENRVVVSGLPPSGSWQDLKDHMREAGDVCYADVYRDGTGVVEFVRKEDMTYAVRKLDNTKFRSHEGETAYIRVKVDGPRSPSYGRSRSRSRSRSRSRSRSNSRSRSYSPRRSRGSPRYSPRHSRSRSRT

How the values were obtained:
[1] = target: GST-tagged SRPK2 (UniProt P78362); assay: pull-down; purified GST-SRPK1 or GST-SRPK2 incubated with purified SRSF1 in vitro, GST agarose beads; GST protein as negative control; both purified
[2] = target: HA-tagged SRPK2 (pcDNA-SRPK2) (UniProt P78362); assay: co-IP; lysates (RIPA buffer) of transfected SW480 cells incubated with HA agarose beads overnight at 4 °C, washed with RIPA buffer, western blotting

Question: How did the binding [1] turn out when His-SRSF1 (from UniProt Q07955 1-248) was run?
Answer: binds

Question: “SRSF1 (serine/arginine-rich splicing factor 1) in SW480 cells (from UniProt Q07955 1-248)” was tested. Which binding [2] did it give?
Answer: binds
